Data taken from the supplement of paper PMC8728848.
This is one part of the list.

How the values were obtained:
Assay in all cases: glycan array binding signal (z-score within array); higher = stronger binding
Details in all cases: glycan notation: IUPAC condensed, linker removed; mutation: H213R,G256S
Fuc(a1-2)Gal = target: Fuc(a1-2)Gal
Method in brief: (§1)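 Arrays were curated from the Consortium for Functional Glycomics database, 3228 in total, and kept only where the protein sequence was available. Binding is expressed as a within-array Z-score. This score was averaged across arrays of the same protein sequence at different concentrations or buffers and across linkers, and negative values can be read as non-binding.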

Fuc(a1-2)Gal(b1-3)GalNAc = target: Fuc(a1-2)Gal(b1-3)GalNAc
Method in brief: as §1

[1] = target: Fuc(a1-2)Gal(b1-3)GalNAc(b1-3)Gal
Method in brief: as §1

[2] = target: Fuc(a1-2)Gal(b1-3)GalNAc(b1-3)Gal(a1-4)Gal(b1-4)Glc
Method in brief: as §1

[3] = target: Fuc(a1-2)Gal(b1-3)GalNAc(b1-4)[Neu5Ac(a2-3)]Gal(b1-4)Glc
Method in brief: as §1

Fuc(a1-2)Gal(b1-3)GlcNAc = target: Fuc(a1-2)Gal(b1-3)GlcNAc
Method in brief: as §1

[4] = target: Fuc(a1-2)Gal(b1-3)GlcNAc(b1-3)Gal(b1-4)Glc
Method in brief: as §1

[5] = target: Fuc(a1-2)Gal(b1-3)[Fuc(a1-4)]GlcNAc
Method in brief: as §1

Fuc(a1-2)Gal(b1-4)Glc = target: Fuc(a1-2)Gal(b1-4)Glc
Method in brief: as §1

Fuc(a1-2)Gal(b1-4)Glc6S = target: Fuc(a1-2)Gal(b1-4)Glc6S
Method in brief: as §1

Fuc(a1-2)Gal(b1-4)GlcNAc = target: Fuc(a1-2)Gal(b1-4)GlcNAc
Method in brief: as §1

[6] = target: Fuc(a1-2)Gal(b1-4)GlcNAc(b1-3)Gal(b1-4)GlcNAc
Method in brief: as §1

[7] = target: Fuc(a1-2)Gal(b1-4)GlcNAc(b1-3)Gal(b1-4)GlcNAc(b1-3)Gal(b1-4)GlcNAc
Method in brief: as §1

[8] = target: Fuc(a1-2)Gal(b1-4)GlcNAc6S
Method in brief: as §1

[9] = target: Fuc(a1-2)Gal(b1-4)[Fuc(a1-3)]GlcNAc
Method in brief: as §1

[10] = target: Fuc(a1-2)Gal(b1-4)[Fuc(a1-3)]GlcNAc(b1-3)Gal(b1-4)[Fuc(a1-3)]GlcNAc
Method in brief: as §1

[11] = target: Fuc(a1-2)Gal(b1-4)[Fuc(a1-3)]GlcNAc(b1-3)Gal(b1-4)[Fuc(a1-3)]GlcNAc(b1-3)Gal(b1-4)[Fuc(a1-3)]GlcNAc
Method in brief: as §1

Fuc(a1-2)Gal6S(b1-4)Glc = target: Fuc(a1-2)Gal6S(b1-4)Glc
Method in brief: as §1

[12] = target: Fuc(a1-2)Gal6S(b1-4)Glc6S
Method in brief: as §1

[13] = target: Fuc(a1-2)Gal6S(b1-4)GlcNAc
Method in brief: as §1

Fuc(a1-2)[Gal(a1-3)]Gal = target: Fuc(a1-2)[Gal(a1-3)]Gal
Method in brief: as §1

[14] = target: Fuc(a1-2)[Gal(a1-3)]Gal(b1-3)GlcNAc
Method in brief: as §1

[15] = target: Fuc(a1-2)[Gal(a1-3)]Gal(b1-4)Glc
Method in brief: as §1

[16] = target: Fuc(a1-2)[Gal(a1-3)]Gal(b1-4)GlcNAc
Method in brief: as §1

[17] = target: Fuc(a1-2)[Gal(a1-3)]Gal(b1-4)[Fuc(a1-3)]GlcNAc
Method in brief: as §1

[18] = target: Fuc(a1-2)[Gal(a1-4)]Gal(b1-4)GlcNAc
Method in brief: as §1

[19] = target: Fuc(a1-2)[GalNAc(a1-3)]Gal
Method in brief: as §1

[20] = target: Fuc(a1-2)[GalNAc(a1-3)]Gal(b1-3)GlcNAc
Method in brief: as §1

[21] = target: Fuc(a1-2)[GalNAc(a1-3)]Gal(b1-4)Glc
Method in brief: as §1

[22] = target: Fuc(a1-2)[GalNAc(a1-3)]Gal(b1-4)GlcNAc
Method in brief: as §1

B1: CD23 (Homo sapiens) (protein)
chain: MELQVSSGFVCNTCPEKWINFQRKCYYFGKGTKQWVHARYACDDMEGQLVSIHSPEEQDFLTKRASHTGSWIGLRNLDLKGEFIWVDGSHVDYSNWAPGEPTSRSQSEDCVMMRGSGRWNDAFCDRKLGAWVCDRLATCTPPASEGSAESMGPDSRPDPDGRLPTPSAPLHS
Fuc(a1-2)Gal
  glycan array binding signal (z-score): 0.42
Fuc(a1-2)Gal(b1-3)GalNAc
  glycan array binding signal (z-score): 0.764
[1]
  glycan array binding signal (z-score): -0.437
[2]
  glycan array binding signal (z-score): -0.206
[3]
  glycan array binding signal (z-score): -0.202
Fuc(a1-2)Gal(b1-3)GlcNAc
  glycan array binding signal (z-score): -0.257
[4]
  glycan array binding signal (z-score): -0.482
[5]
  glycan array binding signal (z-score): -0.42
Fuc(a1-2)Gal(b1-4)Glc
  glycan array binding signal (z-score): -0.561
Fuc(a1-2)Gal(b1-4)Glc6S
  glycan array binding signal (z-score): 0.623
Fuc(a1-2)Gal(b1-4)GlcNAc
  glycan array binding signal (z-score): 0.204
[6]
  glycan array binding signal (z-score): -0.865
[7]
  glycan array binding signal (z-score): -0.359
[8]
  glycan array binding signal (z-score): -0.362
[9]
  glycan array binding signal (z-score): -0.164
[10]
  glycan array binding signal (z-score): -0.367
[11]
  glycan array binding signal (z-score): 1.02
Fuc(a1-2)Gal6S(b1-4)Glc
  glycan array binding signal (z-score): -0.232
[12]
  glycan array binding signal (z-score): -0.001
[13]
  glycan array binding signal (z-score): 0.219
Fuc(a1-2)[Gal(a1-3)]Gal
  glycan array binding signal (z-score): 0.317
[14]
  glycan array binding signal (z-score): -0.318
[15]
  glycan array binding signal (z-score): -0.482
[16]
  glycan array binding signal (z-score): -0.196
[17]
  glycan array binding signal (z-score): -0.199
[18]
  glycan array binding signal (z-score): 0.063
[19]
  glycan array binding signal (z-score): -0.194
[20]
  glycan array binding signal (z-score): 0.022
[21]
  glycan array binding signal (z-score): 0.041
[22]
  glycan array binding signal (z-score): 0.26
